Results are given in words; binding and its absence hold for the method and conditions named. In cells and extracts the contact can be indirect. These calls come from enrichment with a bait or labelling near it, and not all partners need be listed.
Biological target: T1, LDB2 (human (endogenous in HCC sample cells)) (UniProt O43679)
T1 sequence: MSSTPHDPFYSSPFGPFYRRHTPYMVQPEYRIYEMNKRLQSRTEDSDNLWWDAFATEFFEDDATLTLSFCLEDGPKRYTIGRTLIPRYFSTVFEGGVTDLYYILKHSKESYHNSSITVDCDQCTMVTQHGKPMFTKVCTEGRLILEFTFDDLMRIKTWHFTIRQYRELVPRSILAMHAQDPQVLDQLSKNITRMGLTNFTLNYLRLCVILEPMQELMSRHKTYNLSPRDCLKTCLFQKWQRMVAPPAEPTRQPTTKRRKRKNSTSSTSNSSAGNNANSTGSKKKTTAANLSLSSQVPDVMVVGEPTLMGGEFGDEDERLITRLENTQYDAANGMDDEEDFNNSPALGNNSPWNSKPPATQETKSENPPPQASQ
Assay: affinity purification with mass spectrometry; HCC sample cells lysed with RIPA lysis buffer; anti-LDB2 or IgG control at 4 °C overnight; Protein A/G beads 2 h at 4 °C; SDS-PAGE, silver staining; differential bands cut for MS (LTQ Orbitrap XL)

Amino acid sequences for entries named in this document (tags omitted).
UniProt Q9NPI1: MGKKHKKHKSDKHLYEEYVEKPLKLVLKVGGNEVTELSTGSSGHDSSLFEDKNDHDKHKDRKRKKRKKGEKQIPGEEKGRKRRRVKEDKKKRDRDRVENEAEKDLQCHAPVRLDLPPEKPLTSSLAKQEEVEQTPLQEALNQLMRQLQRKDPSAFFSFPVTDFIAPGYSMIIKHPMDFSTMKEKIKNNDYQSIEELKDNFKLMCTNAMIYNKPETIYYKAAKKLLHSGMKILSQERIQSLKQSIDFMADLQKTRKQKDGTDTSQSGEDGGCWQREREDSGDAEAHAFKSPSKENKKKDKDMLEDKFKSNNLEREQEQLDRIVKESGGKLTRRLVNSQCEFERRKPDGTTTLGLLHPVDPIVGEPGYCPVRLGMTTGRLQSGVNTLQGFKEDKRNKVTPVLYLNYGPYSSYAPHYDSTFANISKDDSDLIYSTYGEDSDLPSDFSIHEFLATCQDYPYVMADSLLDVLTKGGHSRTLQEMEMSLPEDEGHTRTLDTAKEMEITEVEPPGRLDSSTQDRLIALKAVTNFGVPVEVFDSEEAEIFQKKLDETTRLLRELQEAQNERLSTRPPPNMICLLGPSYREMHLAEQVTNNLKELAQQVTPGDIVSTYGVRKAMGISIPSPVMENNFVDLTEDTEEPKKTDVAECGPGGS

- binding: binds
Substance: Bromodomain containing 7 (BRD7) (from UniProt Q9NPI1 1-651)
